Data published in PMC9217539.
These are yes or no findings as the source states them, for the method shown. Binding seen in cells or lysates may run through a third protein. Some binding calls cover weakened binding; strength is not graded here.

By UniProt entry, the sequences of proteins in these tests, tags left out.
UniProt P27986: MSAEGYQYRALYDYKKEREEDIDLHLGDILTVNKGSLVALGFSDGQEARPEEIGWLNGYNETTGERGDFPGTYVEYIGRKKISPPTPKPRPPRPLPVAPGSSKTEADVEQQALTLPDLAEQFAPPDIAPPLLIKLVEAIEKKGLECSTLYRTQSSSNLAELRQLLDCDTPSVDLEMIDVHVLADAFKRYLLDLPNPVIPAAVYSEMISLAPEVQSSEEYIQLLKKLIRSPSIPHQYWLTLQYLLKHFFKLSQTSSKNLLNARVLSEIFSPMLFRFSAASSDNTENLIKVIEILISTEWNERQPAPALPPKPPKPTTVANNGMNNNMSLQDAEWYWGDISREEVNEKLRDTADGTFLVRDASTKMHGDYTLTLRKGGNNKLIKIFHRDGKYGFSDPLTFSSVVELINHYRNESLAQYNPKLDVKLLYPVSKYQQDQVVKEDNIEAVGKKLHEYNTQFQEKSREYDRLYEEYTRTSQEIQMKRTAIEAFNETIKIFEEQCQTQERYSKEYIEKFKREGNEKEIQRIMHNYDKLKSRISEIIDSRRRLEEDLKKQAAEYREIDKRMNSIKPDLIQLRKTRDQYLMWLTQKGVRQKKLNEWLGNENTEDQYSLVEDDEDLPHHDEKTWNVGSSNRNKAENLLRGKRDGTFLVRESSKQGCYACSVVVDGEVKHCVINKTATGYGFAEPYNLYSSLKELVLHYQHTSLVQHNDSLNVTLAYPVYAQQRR

Biological target: T1, Rab22a (UniProt Q9UL26)
T1 sequence: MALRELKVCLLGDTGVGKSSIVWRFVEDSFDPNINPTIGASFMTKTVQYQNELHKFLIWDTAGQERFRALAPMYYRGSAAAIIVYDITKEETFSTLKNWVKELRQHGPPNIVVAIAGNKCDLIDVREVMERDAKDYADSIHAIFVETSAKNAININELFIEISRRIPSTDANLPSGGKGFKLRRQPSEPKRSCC
Experiment: co-IP; TPC1 and K1 cells transfected with Rab22a plasmid, 48 h; NP40 lysis buffer; Rab22a antibody or control IgG overnight at 4°C, Protein A+G agarose; western blot

PI3Kp85α (from UniProt P27986 1-724)
binding: binds
